Results on one substance are retold here after PMC11053755.

These are yes or no findings as the source states them, for the method shown.

In this assay the target is T1, OsSHMT1 (rice serine hydroxymethyltransferase 1) (rice (Oryza sativa)) (UniProt Q10D68).
T1 sequence: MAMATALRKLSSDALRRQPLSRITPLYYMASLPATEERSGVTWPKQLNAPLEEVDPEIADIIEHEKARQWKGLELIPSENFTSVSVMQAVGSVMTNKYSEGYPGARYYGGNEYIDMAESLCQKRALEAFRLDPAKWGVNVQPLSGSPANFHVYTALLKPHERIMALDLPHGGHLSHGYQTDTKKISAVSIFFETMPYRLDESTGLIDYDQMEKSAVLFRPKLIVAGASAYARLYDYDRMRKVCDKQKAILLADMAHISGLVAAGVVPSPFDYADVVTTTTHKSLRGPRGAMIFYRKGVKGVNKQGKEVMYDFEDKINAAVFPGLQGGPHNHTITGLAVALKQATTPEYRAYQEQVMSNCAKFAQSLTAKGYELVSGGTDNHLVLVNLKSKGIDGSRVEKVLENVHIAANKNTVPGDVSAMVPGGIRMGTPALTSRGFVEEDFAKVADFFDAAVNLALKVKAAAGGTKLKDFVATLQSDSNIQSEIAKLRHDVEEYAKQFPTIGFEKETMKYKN
Description: two-hybrid; GAL4 system; OsSHMT coding regions in pGBKT7 (BD) and pGADT7 (AD), co-transfected into yeast AH109; grown on SD/-Leu/-Trp, then SD/-Leu/-Trp/-His/-Ade to verify interactions.

As to “OsSHMT3 (rice serine hydroxymethyltransferase 3) (enzyme)”, the binding entry is listed as “no binding”.
